Structures are written as SMILES.

The values below come from patent US20200038383A1, “IMMEDIATE-RELEASE ABUSE DETERRENT CO[…] MEDICAMENTS FOR TREATING PAIN, ADD, ADHD AND OTHER SYNDROMES OR DISORDERS” (KEMPHARM, INC., priority 2016, published 2020).

This data set is described as follows: Oral dose escalation study in rats. The settings on record: oral solutions, escalating dosages.

In the case of `CN1CC[C@]23c4c5ccc(O)c4O[C@H]2C(=O)CC[C@H]3[C@H]1C5.Cl` [hydromorphone hydrochloride, reference compound], the “exposure (AUC) to hydromorphone at doses above the therapeutic level” value is given as “approximately dose proportional”.
